Results taken from PubChem BioAssay AID493014 (National Center for Advancing Translational Sciences (NCATS), 2011).
This is one part of the list. Further columns of the screen follow, without active or inactive calls. Compounds called inactive in the main read-out are mostly missing here. Words in brackets tell the shape of the fitted curve; partial curves, single points and poor fits give uncertain potencies.

Assay: qHTS Assay to Find Inhibitors of Chronic Active B-Cell Receptor Signaling
Settings: ABC-DLBCL IkBa-CBG/CBR reporter, luminescence ratio (green luciferase fused to IkBa over red control in TMD8 lymphoma cells), 4 h
Source text: NIH Molecular Libraries Probe Production Network [MLPCN] NIH Chemical Genomics Center [NCGC] MLPCN Grant: 1 R03 DA031086-01A1 PI Name: Dr. R. Eric Davis NCGC Assay Overview: Diffuse large B-cell lymphoma (DLBCL) is the most common category of non-Hodgkin lymphoma, with ~20,000 new cases per year in the United States. DLBCL should be regarded as a collection of different neoplasms. Microarray gene expression analysis has defined two principal types of DLBCL, named for their similarity to normal B cell stages or activation states: a germinal center B-cell (GCB) type, and an activated B-cell (ABC) type. In ABC-DLBCL, a constitutive high-level activity of the NF-kappaB family of transcription factors has been observed (1) and NF-kappaB target genes are more highly expressed in ABC primary tumors than in GCB tumors. Functional studies have shown a constitutive high-level activity of the IkappaB (inhibitor of kappa-B) kinase (IKK) complex. […] Further analysis of DLBCL primary tumors for NF-kappaB target gene expression imply that although CARD11 is required for constitutive IKK activity in all ABC-DLBCL lines, mutations in CARD11 may be the root cause of IKK activation only in lines or tumors with such mutations. In other words, CARD11 mutations may explain NF-kappaB activation in only 10% of ABC-DLBCL cases. […] This process has been termed 'chronic active BCR signaling' (CABS). The goal of this screen is to find small-molecule inhibitors of the CABS pathway found in ABC-DLBCL lines using a cell-based assay that measures IkappaBalpa stability, which has already been extensively validated in the OCI-Ly3 line (PubChem AID:445; REF: 4). […] The assay uses green (CBG68) and red (CBR) emitting beetle luciferases [Chroma-GloTM developed by Promega Corp.] where the green luciferase is fused to IkappaBalpha and the red luciferase is present in its native state. Both luciferase genes are stably present in the TMD8 human ABC DLBCL cell line, but their expression is under the control of tetracycline-inducible promoters. Following the addition of doxycycline to induce expression of the luciferases, the green luminescence in control cultures rises only slowly because the CBG fusion partner IkappaBalpha is targeted by IKK activity for rapid degradation. In contrast, green luminescence rises rapidly in the presence of proteasome inhibitors or IKK inhibitors. The rise in red luminescence of CBR is not affected by proteasome or IKK inhibitors, and serves as normalization for cell number and nonspecific effects. Compounds were screened as a concentration-titration series that ranged from 46 uM to 3 nM.
NCGC Assay Protocol Summary: Cells were seeded in 1536-well plates at 5000 cells/4uL in IMDM medium containing 0.5% FBS, w/o phenol red, 1% penicillin/streptomycin. Then, 23 nL of compounds or DMSO were delivered to each well using a pin tool. One uL 20ng/ml doxycycline was then dispensed into white solid 1536-well plates and the plates were incubated at 37C/5% C02 in a cell incubator for 4 hrs. Then 4 uL luminescent substrate mix (in-house prepared: 150 mM Tris-Cl, pH 7.6, 3 mM MgCl2, 1% Triton X-100, 5 mM DTT, 0.2 mM CoA, 0.15 mM ATP, 5 mM D-luciferin, final concentrations) was added to each well. The plate was incubated at r.t. for 10-15 min. The plates were measured on a ViewLux plate reader for green luminescence (540/20 nm filter) and red luminescence (618/8 nm filter). The green and red luminescent signals were corrected for red and green luminescence filter overlap using previously determined filter calibration constants (determined using the procedure outlined in the Promega Technical Manual; REF 4). The %Activity was determined from the ratio of corrected green/red luminescent values. MG132 were used as control. […] Red luminescent %Activity was normalized to the difference between red luminesence in basal cells (0%Activity) and zero luminescence (-100% Activity). […]

[1] = measured here: CBR red luminescence, cell number
[2] = measured here: IkBa-CBG green luminescence

## O=S(=O)(Nc1nc2ccccc2nc1N1CCN(c2ccccn2)CC1)c1ccc(Cl)cc1
[1]
  AC50: 29.1 µM [falling, single point]

## CC(=O)c1ccc(OCCCC(=O)OCC(=O)Nc2c(C)nn(-c3ccccc3)c2C)cc1
[1]
  AC50: 0.731 µM [rising, full curve, poor fit]

## Cc1cc(OC(=O)c2ccccc2Cl)cc(=O)n1C
[1]
  AC50: 12.6 µM [falling, single point]

## COC(=O)c1ccc(OCC2c3cc(OC)c(OC)cc3CCN2C(=O)c2ccco2)cc1 (centres undefined)
[1]
  AC50: 35.5 µM [falling, single point]

## O=C(NCc1ccc(F)cc1)c1ccc(N2CCOCC2)c([N+](=O)[O-])c1
[1]
  AC50: 7.08 µM [rising, full curve, poor fit]

## CCCc1nc2c(nnn2Cc2ccccc2Cl)c(=O)[nH]1
[1]
  AC50: 6.31 µM [falling, partial curve, poor fit]

## Cc1ccc(CNC(=O)C2CCN(S(=O)(=O)c3c(C)noc3/C=C/c3ccco3)CC2)cc1
[1]
  AC50: 0.0092 µM [rising, full curve, poor fit]

## Cc1cccc(C(=O)Nc2sc(-c3ccccc3)cc2C(=O)O)c1
[1]
  AC50: 7.94 µM [falling, partial curve, poor fit]

## CCCOc1ccc(-c2c(C(=O)N/N=C/c3cccs3)nnn2-c2nonc2N)cc1
[1]
  AC50: 35.5 µM [falling, single point]

## COC(=O)c1nnn(CC(=O)Nc2cccc(OC)c2)c1C(=O)OC
[1]
  AC50: 9.2 µM [rising, partial curve, poor fit]

## CC(=O)c1cccc(NC(=O)CC2CCCC2)c1
[1]
  AC50: 6.31 µM [rising, partial curve]

## O=C(CSc1nc2ccccc2c(=O)n1CC1CCCO1)Nc1ccc(F)cc1 (centres undefined)
[1]
  AC50: 8.91 µM [falling, partial curve, poor fit]

## Cc1ccc(/C=C(\NC(=O)c2ccccc2)C(=O)N2CCCCC2)cc1
[1]
  AC50: 35.5 µM [rising, single point]

## O=C(O)c1ccc(NC(=O)c2cc3ccccc3o2)cc1
[1]
  AC50: 0.251 µM [falling, full curve]

## Cc1cccc(NCCC#N)c1
[1]
  AC50: 23.1 µM [rising, partial curve, poor fit]

## Cc1cccc(C)c1Nc1c(-c2ccc(N3CCOCC3)cc2)nc2cnccn12
[1]
  AC50: 25.1 µM [rising, single point]
[2]
  AC50: 15.8 µM [falling, partial curve, poor fit]

## COc1ccccc1N1CCN(C(=O)CSc2nnc(NC(=O)C3CC3)s2)CC1
[1]
  AC50: 28.2 µM [rising, single point]

## Cc1ccc(-c2cc(C(F)F)nc(S(C)(=O)=O)n2)cc1
[1]
  AC50: 8.91 µM [falling, partial curve]
[2]
  AC50: 12.6 µM [rising, partial curve, poor fit]

## COc1ccc(/C=N/NC(=O)CNC(=O)c2cccs2)cc1
[1]
  AC50: 1.64 µM [falling, full curve, poor fit]

## O=C1/C(=C/c2ccc(N3CCOCC3)o2)SC(=Nc2ccccc2)N1CCc1c[nH]c2ccccc12
[1]
  AC50: 35.5 µM [rising, single point]
[2]
  AC50: 15.8 µM [falling, partial curve, poor fit]

## COc1ccc(C2CC(=O)c3ccccc3O2)cc1 (centres undefined)
[1]
  AC50: 4.11 µM [rising, full curve]

## Cc1ccsc1/C=N/Nc1ccc(Cl)nn1
[1]
  AC50: 0.447 µM [rising, full curve, poor fit]

## O=C(c1cc([N+](=O)[O-])ccc1N1CCOCC1)N1CCN(c2ccccc2)CC1
[1]
  AC50: 2.82 µM [rising, full curve]
[2]
  AC50: 2.51 µM [falling, full curve]

## Cc1nc(SCC(=O)N(C)C2CCS(=O)(=O)C2)c2ccccc2n1 (centres undefined)
[1]
  AC50: 18.4 µM [falling, single point]

## NC(=O)CC(NC(=S)NCc1ccccc1)C(=O)O (centres undefined)
[1]
  AC50: 18.4 µM [falling, partial curve, poor fit]

## COc1ccc(C(=O)Nc2nnc(C(F)(F)F)s2)cc1
[1]
  AC50: 1.12 µM [falling, full curve]

## O=C(Oc1c(-c2ccccc2)c(=O)n2c3c(cccc13)CC2)c1ccccc1
[1]
  AC50: 8.91 µM [falling, partial curve, poor fit]

## CCCCn1c(-c2ccccc2)cnc1SCC(=O)NCCc1ccc(OC)c(OC)c1
[1]
  AC50: 2.91 µM [rising, single point]

## O=[N+]([O-])c1ccc(N/N=C/c2cccc(O)c2O)cc1
[1]
  AC50: 17.8 µM [falling, single point]

## Oc1ccc(/C=N/Nc2nc(-c3ccccc3F)nc3ccccc23)c(O)c1
[1]
  AC50: 5.01 µM [falling, partial curve]

## Cc1c(O)ccc(C(=O)CN2CCN(Cc3ccccc3)CC2)c1O
[1]
  AC50: 2.82 µM [falling, partial curve, poor fit]

## COc1ccc(/C=C/C(=O)Nc2cccc(S(=O)(=O)NC3=NCCCCC3)c2)cc1OC
[1]
  AC50: 29.1 µM [falling, single point]

## Clc1ccc(Cc2nnc(-c3cccs3)o2)cc1
[1]
  AC50: 6.51 µM [rising, partial curve]

## Brc1cc(Br)cc(CN2CCSCC2)c1
[1]
  AC50: 31.6 µM [falling, single point]

## COc1ccc(C)c(-n2c(=O)n(Cc3ccccc3)c(=O)c3[nH]cnc32)c1
[1]
  AC50: 12.6 µM [rising, partial curve]

## O=C(Nc1nncs1)c1cc2c(s1)CCC2
[1]
  AC50: 3.55 µM [rising, partial curve, poor fit]

## COc1ccc(CNc2ncnc3c2cnn3-c2ccc(C)c(C)c2)cc1
[1]
  AC50: 14.1 µM [falling, partial curve, poor fit]

## CCN(CC)C1CCN(C(=O)CCc2nnc(CCCCc3ccccc3)o2)C1 (centres undefined)
[1]
  AC50: 35.5 µM [rising, single point]

## Cc1ccccc1C(=O)Nc1sc2c(c1C(=O)O)CCC2
[1]
  AC50: 3.55 µM [falling, partial curve, poor fit]

## Nc1c(C(=O)c2ccccc2)sc2c1c(=O)[nH]c(=O)n2-c1ccccc1
[1]
  AC50: 18.4 µM [rising, single point]
